The record followed here is publication doi:10.1101/2022.10.17.512556 (bioRxiv, 2022).

These are yes or no findings as the source states them, for the method shown. A result given as binding can be weak or reduced; the word gives no strength.

Test [1] concerns the target T1, S210A DegP (E. coli) (UniProt P0C0V0).
T1 sequence: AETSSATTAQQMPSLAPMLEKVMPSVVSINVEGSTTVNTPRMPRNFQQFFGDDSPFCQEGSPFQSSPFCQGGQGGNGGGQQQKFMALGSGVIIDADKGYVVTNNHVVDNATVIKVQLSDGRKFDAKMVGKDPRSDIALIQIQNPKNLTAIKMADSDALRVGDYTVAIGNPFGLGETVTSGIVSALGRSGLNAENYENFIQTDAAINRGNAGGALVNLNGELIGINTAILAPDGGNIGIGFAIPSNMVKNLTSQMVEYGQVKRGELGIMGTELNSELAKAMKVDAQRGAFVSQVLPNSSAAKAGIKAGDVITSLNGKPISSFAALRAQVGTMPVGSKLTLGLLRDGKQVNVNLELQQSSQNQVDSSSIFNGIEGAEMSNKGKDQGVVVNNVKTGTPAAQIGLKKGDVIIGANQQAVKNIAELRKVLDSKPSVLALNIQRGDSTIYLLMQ
Kind of test: dynamic light scattering.

Test [2] has as its target T1, S210A DegP (E. coli). Kind of test: cryo-EM structure.

“DNA binding domain of the human telomere repeat binding factor (hTRF1) (domain or fragment)”: the binding result in the test with S210A DegP (E. coli) [1] and with S210A DegP (E. coli) [2] was “binds” in each case.
